Data reported in PubChem BioAssay AID504834 (National Center for Advancing Translational Sciences (NCATS), 2011).
Where “and” joins values, the source holds several entries; their conditions need not be identical. Equal values may be shown once. In all, about 320,000 compounds went through this assay and about 22,000 (6.9%) were called active. Inconclusive results, whose numbers are uncertain, are shown with a selection of clear calls. Calls come from the whole dose curve; as a rule, active = well fitted inhibition curve with a large enough effect; inconclusive = small, poorly fitted or top-dose-only effect, or another doubt; inactive = no such curve, though single readings can be large or run the other way. Potencies beside an inconclusive call are fits to weak or partial responses and may not hold up.

Experiment: Primary qHTS for delayed death inhibitors of the malarial parasite plastid, 96 hour incubation
Conditions: P. falciparum luciferase reporter growth; series mostly up to 28.7 µM
Procedure, shortened: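 Readout is luminescence from an integrated firefly luciferase in P. falciparum. Red cells, 2% hematocrit and 0.05% parasitemia final, were cultured with compound through two parasite generations (96 hours) at 37 C, 5% CO2.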
% is set by controls: 0 for no effect and ±100 for the full control effect; potency is the fitted concentration of half-maximal effect.

Row | Compound | Potency | activity change, negative = inhibition
1 | Cc1ccccc1Nc1nc(=O)c2cc([N+](=O)[O-])ccc2s1 | inconclusive: 18.5 µM [inhibitor, single point] | –
2 | Cc1ccc2cc(CN(CCCO)S(=O)(=O)c3cccc4nsnc34)c(=O)[nH]c2c1 | active: 4.15 µM | –
3 | O=C(CCNS(=O)(=O)c1ccccc1)Nc1ccccc1 | inconclusive: 18.5 µM [inhibitor, single point] | –
4 | COc1cc(-c2noc(C)n2)cc(OC)c1OC | inactive | –
5 | Cc1cc(C)n2cc(CSc3nc4ccccc4s3)nc2n1 | inactive | –
6 | Oc1c(Br)cc2oc3c(c2c1CNCc1ccccc1)CCCC3 | active: 0.294 µM | –
7 | CC(C)C(C(=O)Nc1nccs1)c1ccc(Cl)cc1 (stereo not given) | active: 9.28 µM | –
8 | CN1CCN(S(=O)(=O)c2ccc(SCCOc3ccc(Cl)cc3)nc2)CC1 | inconclusive: 10.4 µM [inhibitor, single point] | –
9 | CCCOc1ccc(N2C(=O)CC(N3CCC(c4nc5ccccc5o4)CC3)C2=O)cc1 (stereo not given) | inconclusive: 0.037 µM [inhibitor, full curve, poor fit] | –
10 | CC(C)Cn1[nH]c2c3c(ccc2c1=O)C(=O)c1ccccc1C3=O | inconclusive: 10.4 µM [inhibitor, partial curve, poor fit] | –
11 | CCCCCCn1c(SCCCC)nc2c1c(=O)[nH]c(=O)n2C | active: 3.29 µM | –
12 | Cc1ccc(S(=O)(=O)NCc2c(Cl)cccc2Oc2ccccc2)cc1 | inactive | –
13 | Cc1cccc(Nc2nc(C)cc(C)n2)c1 | inconclusive: 18.5 µM [inhibitor, single point] | –
14 | Cc1cccc(C(=O)NNC(=O)CSc2nnc(C3CC3)n2C)c1 | inconclusive: 0.738 µM [inhibitor, full curve] | –
15 | CCc1noc(C)c1C(=O)Nc1ccc(Cl)c(S(=O)(=O)N2CCCCC2)c1 | inconclusive: 10.4 µM [inhibitor, partial curve] | –
16 | Cc1cccc(C)c1NC(=S)NNc1ncc(C(F)(F)F)cc1Cl | inconclusive: 16.5 µM [inhibitor, single point] | –
17 | O=C(CCl)N(c1ccccc1)c1c[nH]c2ccccc12 | active: 1.17 µM | –
18 | Cc1ccc(CN2C3CCCC2CC(NC(=O)Nc2cccc(F)c2)C3)cc1 (stereo not given) | inactive | –
19 | CCOC(=O)C(C)Sc1nc(-c2ccc(OC)cc2)nc2c1c(=O)n(C)c(=O)n2C (stereo not given) | inconclusive: 10.4 µM [inhibitor, partial curve, poor fit] | –
20 | O=C(CCNC(=O)c1ccccc1)N/N=C/c1ccc([N+](=O)[O-])cc1 | inconclusive: 13.1 µM [inhibitor, partial curve, poor fit] | –
21 | O=C1CCC(=O)N1c1ccc(NCCc2cccc(F)c2)c([N+](=O)[O-])c1 | inconclusive: 4.65 µM [inhibitor, partial curve, poor fit] | –
22 | Cn1ncc(N2CCN(C(=O)c3ccc(Cl)cc3)CC2)c(Cl)c1=O | inconclusive: 1.47 µM [inhibitor, partial curve, poor fit] | –
23 | CC(C)(C)C(C(=O)Oc1ccccc1)c1ccccc1 (stereo not given) | inconclusive: 14.7 µM [inhibitor, single point] | –
24 | CCN1CCN(C(=O)/C(=C/c2cccs2)NC(=O)c2ccc(C)c(C)c2)CC1 | inactive | –

Row | Compound | Potency | activity change, negative = inhibition
25 | COc1ccccc1/C=C/c1nc(C#N)c(N(C)C)o1 | inconclusive: 6.57 µM [inhibitor, partial curve] | –
26 | Cc1ccc(NC(=O)[C@H](CC(C)C)NC(=O)[C@@H]2Cc3ccccc3CN2)cc1 | inconclusive: 18.5 µM [inhibitor, single point] | –
27 | CCc1cccc(NC(=O)c2ccc(CNc3c(N4CCCC4)c(=O)c3=O)cc2)c1 | inconclusive: 0.329 µM [inhibitor, full curve] | –
28 | Cc1cc(=O)n2nc(-c3ccccc3)sc2c1C#N | inconclusive: 5.22 µM [inhibitor, partial curve] | –
29 | COc1cc(Cl)c(S(=O)(=O)N2CCCC2)cc1Cl | inconclusive: 16.5 µM [inhibitor, single point] | –
30 | S=c1[nH]nc(-c2ccccc2)n1Cc1ccccc1 | active: 0.415 µM | –
31 | c1ccc2[nH]c(-c3ccncc3)nc2c1 | inconclusive: 2.9 nM [inhibitor, full curve, poor fit] and inconclusive: 14.7 µM [inhibitor, single point] | –
32 | Clc1ccc(CNc2ccc(N3CCN(Cc4ccccc4)CC3)cc2)cc1 | active: 9.28 µM | –
33 | CCCNC(=O)c1ccc(N2CCC3(CC2)CC(c2ccccc2)=NO3)c([N+](=O)[O-])c1 | inconclusive: 0.0029 µM [inhibitor, full curve, poor fit] | –
34 | Cc1ccc(C)c(S(=O)(=O)N2CCCCC2CCNC(=O)C(=O)NCc2ccccn2)c1 (stereo not given) | inconclusive: 9.28 µM [inhibitor, partial curve] | –
35 | Cc1cccc(N=Nc2ccc(O)c3ncccc23)c1 | inconclusive: 18.5 µM [inhibitor, single point] | –
36 | Cc1nn(C)c(C)c1CNC(=O)Nc1ccc2c(c1)OCO2 | inactive | –
37 | CC(NC(=O)c1cccc(Br)c1)c1ccccc1 (stereo not given) | inactive | –
38 | O=C(NCC1CCCO1)c1cc([N+](=O)[O-])ccc1N1CCC(Cc2ccccc2)CC1 (stereo not given) | inconclusive: 18.5 µM [inhibitor, single point] | –
39 | CC(C(=O)Nc1cccc(S(=O)(=O)N2CCOCC2)c1)N1CCN(C)CC1 (stereo not given) | inconclusive: 18.5 µM [inhibitor, single point] | –
40 | Cc1cc(NC(=O)c2cnn3c(C(F)F)cc(C4CC4)nc23)no1 | inconclusive: 7.38 µM [inhibitor, partial curve] | –
41 | c1csc(-c2noc(COc3ccc4c(c3)CCCC4)n2)c1 | inconclusive: 2.62 µM [inhibitor, single point] | –
42 | Cn1c(=O)oc2cc(S(=O)(=O)N3CCCC(C(=O)NCC4COc5ccccc5O4)C3)ccc21 (stereo not given) | inconclusive: 5.22 µM [inhibitor, partial curve] | –
43 | CCOc1ccc(S(=O)(=O)Nc2ccc(S(=O)(=O)N3CCOCC3)cc2)cc1 | inactive | –
44 | COC(=O)c1ccccc1S(=O)(=O)Nc1ccc(OC)nc1 | inconclusive: 18.5 µM [inhibitor, single point] | –
45 | O=C(Oc1ccc2ccc(OC(=O)N3CCCCCC3)cc2c1)N1CCCCCC1 | inconclusive: 0.233 µM [inhibitor, full curve, poor fit] | –
46 | Cc1ccccc1Cn1cc(C)c(=O)[nH]c1=O | inconclusive: 10.4 µM [inhibitor, single point] | –
47 | CN(Cc1ccccc1)C(=O)COC(=O)c1cc(S(=O)(=O)N(C)C)ccc1N1CCCC1 | active: 11.7 µM | –
48 | CCCCC(C(=O)NC1CCCC1)N(C(=O)c1snc(C(N)=O)c1N)c1ccc(F)cc1 (stereo not given) | active: 5.86 µM | –

Given comma-delimited: part of the list above.
Row,Compound,Potency,"activity change, negative = inhibition"
13,Cc1cccc(Nc2nc(C)cc(C)n2)c1,"inconclusive: 18.5 µM [inhibitor, single point]",–
23,CC(C)(C)C(C(=O)Oc1ccccc1)c1ccccc1 (stereo not given),"inconclusive: 14.7 µM [inhibitor, single point]",–
30,S=c1[nH]nc(-c2ccccc2)n1Cc1ccccc1,active: 0.415 µM,–
33,CCCNC(=O)c1ccc(N2CCC3(CC2)CC(c2ccccc2)=NO3)c([N+](=O)[O-])c1,"inconclusive: 0.0029 µM [inhibitor, full curve, poor fit]",–

Carrying on:

Row | Compound | Potency | activity change, negative = inhibition
49 | CCOc1ccccc1NC(=S)N1CCC(NC(=O)NC23CC4CC(CC(C4)C2)C3)CC1 | inconclusive: 16.5 µM [inhibitor, single point] | –
50 | Cn1c2cc(Br)sc2c2cnn(Cc3c(F)cccc3Cl)c(=O)c21 | inactive | –
51 | O=C(COc1ccc(S(=O)(=O)N2CCOCC2)cc1Cl)N1CCOCC1 | inactive | –
52 | CC1CCN(C(=O)c2ccccc2NC(=O)c2cccs2)CC1 | inconclusive: 18.5 µM [inhibitor, single point] | –
53 | CC1Cc2ccccc2N1C(=O)Cn1nnc(-c2ccccc2NC(=O)C2CCC2)n1 (stereo not given) | inconclusive: 14.7 µM [inhibitor, single point] | –
54 | Nc1nc(NCCCN2CCOCC2)nc(Nc2cccc(F)c2)c1[N+](=O)[O-] | inconclusive: 18.5 µM [inhibitor, single point] | –
55 | O=C(CSc1n[nH]c(-c2ccccc2F)n1)Nc1cc(F)ccc1F | inconclusive: 0.828 µM [inhibitor, full curve, poor fit] | –
56 | COc1ccccc1CNC(=O)c1ccc(SC)cc1OC | inconclusive: 11.7 µM [inhibitor, single point] | –
57 | COc1ccc(Nc2cc(O)c3ncccc3c2)cc1 | active: 0.415 µM | –
58 | O=C(COc1ccc(S(=O)(=O)N2CCOCC2)cc1)NCCN1CCOCC1 | inactive | –
59 | O=C(Nc1cccn2ncnc12)c1cccc(C(F)(F)F)c1 | inactive | –
60 | O=C(NCc1ccc2c(c1)OCO2)C(=O)NCC1OCCN1S(=O)(=O)c1ccc(Br)cc1 (stereo not given) | inconclusive: 0.37 µM [inhibitor, full curve, poor fit] | –
61 | CCc1ccc(S(=O)(=O)N2CCN(c3ncccn3)CC2)cc1 | inconclusive: 20.8 µM [inhibitor, partial curve, poor fit] | –
62 | Cc1ccc(S(=O)(=O)NCC(=O)N(CC(=O)NC2CCCCC2)CC2CCCO2)cc1 (stereo not given) | inconclusive: 10.4 µM [inhibitor, single point] | –
63 | CCc1ccc2nc(N(CCCN(C)C)C(=O)c3ccc(C(=O)c4ccccc4)cc3)sc2c1 | active: 14.7 µM | –
64 | CC1CCN(C(=O)C2CCC(=O)N(Cc3ccc(Cl)cc3)C2)CC1 (stereo not given) | inactive | –
65 | COc1ccc(/C=N/Nc2ccccc2C(=O)O)cc1Cn1cc([N+](=O)[O-])cn1 | inactive | –
66 | CCn1c(SCC(=O)N2CCCCCC2)nc2c([nH]c3ccccc32)c1=O | inconclusive: 4.65 µM [inhibitor, partial curve, poor fit] | –
67 | COCCN(Cc1cn[nH]c1-c1ccc2cc(OC)ccc2c1)C(C)C | active: 11.7 µM | –
68 | Cc1cccc(C)c1NC(=O)COC(=O)c1ccc2c(c1)OCO2 | inactive | –
69 | CC(=O)Nc1ccc(C(=O)OCC(=O)NCc2ccccc2)cc1 | – | inactive: -8.74% [at 5.75 µM]
70 | COC(=O)C1=C(C)NC(C)=C(C(=O)OC)C1C(=O)OC1CCCCC1=O (stereo not given) | inconclusive: 14.7 µM [inhibitor, partial curve, poor fit] | –
